Test results from US20160177259A1, “[…]” (Evonik Degussa GmbH, priority 2014, published 2016).

Tested on: Clostridium ljungdahlii
Test: Formation of acetic acid and ethanol from synthesis gas in CGF1 mineral medium with refeeding of cysteine (Example 3)
Format: cell-based
Experimental: For the biotransformation of hydrogen and carbon dioxide to acetic acid and ethanol the homoacetogenic bacterium Clostridium ljungdahlii was cultivated on synthesis gas with refeeding of cysteine. All cultivation steps were carried out under anaerobic conditions in pressure-resistant glass bottles that can be closed airtight with a butyl rubber stopper.
The chemolithoautotrophic cultivation was carried out in a 1 L pressure-resistant glass bottle at 37° C., 100 rpm and a ventilation rate of 3 L/h with a premixed gas with 67% H2, 33% CO2 in an open water bath shaker for 69 h till OD600nm>0.4. The gas was discharged into the medium through a sparger with a pore size of 10 μm, which was mounted in the center of the reactors. Then the cell suspension was centrifuged and the cell pellet was resuspended in fresh CGF1 mineral medium as disclosed below.
For the production phase, as many washed cells from the preculture of C. ljungdahlii as necessary for an OD600nm of 0.2 were added to 100 ml mineral medium (CGF1 medium, pH 6.5, 1.4 g/L KOH, 2 g/L (NH4)2SO4, 1 g/L KH2PO4, 1 g/L K2HPO4, 10 mg/L FeSO4 X 7 H2O, 3.8 mg/L MnSO4 X 1 H2O, 246 mg/L MgSO4×7 H2O, aerated for 30 min with a premixed gas with 67% H2 and 33% CO2). […] The cultivation was carried out in 500 mL pressure-resistant glass bottles at 37° C., 150 rpm in an open water bath shaker for 163 h which were aerated to an overpressure of 0.8 bar with a premixed gas with 67% H2, 33% CO2 one time a day. The pH was held >5.0 by intermittent additions of a 140 g/L KOH solution. During the cultivation several 5 mL samples were taken to determinate OD600nm, pH and product formation. […] The determination of the product concentrations including the L-Cysteine concentration was performed by semiquantitative ^1H-NMR spectroscopy. As an internal quantification standard sodium trimethylsilylpropionate (T(M)SP) was used.

Cl.N[C@@H](CS)C(=O)O [L-Cysteine-HCl, L-cysteine hydrochloride] showed a L-Cysteine (culture A, 400 mg/L L-cysteine-hydrochloride at start, no refeed, 0 h) of 270.0 mg/L, a L-Cysteine (culture A, 400 mg/L L-cysteine-hydrochloride at start, no refeed, 18.75 h) of 70.0 mg/L and a L-Cysteine (culture B, 200 mg/L L-cysteine-hydrochloride at start, no refeed, 0 h) of 132.5 mg/L. The L-Cysteine (culture C, 200 mg/L L-cysteine-hydrochloride at start, re-fed 200 mg/L after 18, 41, 65, 89 h, 0 h) was 120.0 mg/L, the L-Cysteine (culture C, 200 mg/L L-cysteine-hydrochloride at start, re-fed 200 mg/L after 18, 41, 65, 89 h, 46.75 h) was 123.0 mg/L and the L-Cysteine (culture C, 200 mg/L L-cysteine-hydrochloride at start, re-fed 200 mg/L after 18, 41, 65, 89 h, 69.5 h) was 108.0 mg/L. The L-Cysteine (culture C, 200 mg/L L-cysteine-hydrochloride at start, re-fed 200 mg/L after 18, 41, 65, 89 h, 95.5 h) was 89.0 mg/L.
